Data reported in US20250074957A1.
These are yes or no findings as the source states them, for the method shown. Some binding calls cover weakened binding; strength is not graded here.

Key:
[1] = molecular target: FMC63-CD28-IKZF3 (HaloTag fusion for BRET); experiment: NanoBRET (constructs used in FIG. 2 and FIG. 3)
[2] = molecular target: FMC63-CD28-IKZF3 (HaloTag fusion for BRET); experiment: NanoBRET in 293T cells with pomalidomide
[3] = molecular target: FMC63-CD28-IKZF3 (HaloTag fusion for BRET); experiment: NanoBRET in 293T cells, 10 µM MG132, 2 hours of drug treatment

binding [1]: binds
binding [2]: binds
binding [3]: binds
B1: Split CAR component 3 (BRET) (protein, not shown: large carriers)
chain: ERRAEVPTAHPSPSPRPAGQFQTLVVGVVGGLLGSLVLLVWVLAVICSRAARGTIGARRTGQPLKEDPSAVPVFSVDFGELDFQWREKTPEPPVPCVPEQTEFATIVFPSGMGTSSPARRGSADGPRSAQPLRPEDGHCSWPLGGGGSAGEGDQQDAAHNMGNHLPLLPESEEEDEMEVEDQDSKEAKKPNIINFDTSLPTSHTYLGADMEEFHGRTLHDDDSCQVIPVLPQVMMILIPGQTLPLQLFHPQEVSMVRNLIQKDRTFAVLAYSNVQEREAQFGTTAEIYAYREEQDFGIEIVKVKAIGRQRFKVLELRTQSDGIQQAKVQILPECVLPSTYDAETLMDRIKKQLREWDENLKDDSLPSNPIDFSYRVAACLPIDDVLRIQLLKIGSAIQRLRCELDIMNKCTSLCCKQCQETEITTKNEIFSLSLCGPMAAYVNPHGYVHETLTVYKACNLNLIGRPSTEHSWFPGYAWTVAQCKICASHIGWKFTATKKDMSPQKFWGLTRSALLPTIPDTEDEISPDKVILCL
